Assay results as given in patent US20220096468A1 (priority 2018, published 2022).
At least one compound was matched to its structure with a doubt left.

Tested on: Punta Toro virus
Assay type: cell-based

With `Cn1nnc2c(C(N)=O)ncn2c1=O` [Temozolomide, temozolomide] the “LogTCID50 value that shows the effect of reducing the virus amount with respect to the infection control” value was “excellent effect of reducing the virus amount”.
